Results from the supplement of paper PMC6078165.
± gives the standard deviation of the averaged measurements. Values are relative to the signal before dosing, not to a vehicle control; the signal also falls without drug.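 Fibroblast labels name human fibroblasts: mostly primary ones from tissues such as uterus (C12385, HUF), lung (H6013), bone (Hs27A), adrenal (HADF) and skin (WS1), plus mammary HMF and breast cancer-associated Hs343T. The cancer cells are basal-like or mesenchymal-like triple-negative breast cancer lines. The paper calls a changed response a hit when it shifts by more than 3x the replicate standard deviation. The tissue of the other fibroblasts is not given here.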

System: MDAMB231
Experiment: relative JC-1 red fluorescence (viability) vs pre-drug, coculture with fibroblast (fraction); higher = more viable cancer cells
Method: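 JC-1 labelled TNBC cells cocultured 1:1 (1,500 cells each) with CellTrace Violet stained primary or stromal fibroblasts in 384-well plates in FluoroBrite medium, treated with one of 42 anticancer drugs at 0.1, 1, 10 or 100 uM. JC-1 red fluorescence (mitochondrial integrity in cancer cells only) was read by plate reader every 8 h for 72 h. Values are normalised to each well's pre-drug value. The stock of one drug was tenfold lower, so its dose labels may be too high.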

N.N.[Cl][Pt][Cl] [Cisplatin]
relative JC-1 red fluorescence
Details	8 h	16 h	24 h	32 h	40 h	48 h	56 h	64 h	72 h
10 µM, coculture fibroblast: C12385	0.7627 ± 0.0063	0.711 ± 0.0076	0.6464 ± 0.002	0.614 ± 0.009	0.553 ± 0.013	0.528 ± 0.017	0.49 ± 0.012	0.483 ± 0.02	0.467 ± 0.026
10 µM, coculture fibroblast: H6013	0.882 ± 0.02	0.837 ± 0.016	0.8195 ± 0.008	0.7992 ± 0.0024	0.768 ± 0.011	0.746 ± 0.021	0.725 ± 0.019	0.707 ± 0.024	0.667 ± 0.024
10 µM, coculture fibroblast: H6019	0.77 ± 0.0095	0.699 ± 0.017	0.7234 ± 0.0024	0.677 ± 0.0092	0.643 ± 0.021	0.638 ± 0.016	0.594 ± 0.022	0.599 ± 0.024	0.575 ± 0.026
10 µM, coculture fibroblast: H6076	0.89 ± 0.015	0.803 ± 0.0092	0.7468 ± 0.0072	0.721 ± 0.014	0.684 ± 0.015	0.64 ± 0.019	0.614 ± 0.035	0.599 ± 0.041	0.586 ± 0.051
10 µM, coculture fibroblast: H6231	0.921 ± 0.01	0.823 ± 0.023	0.741 ± 0.029	0.678 ± 0.015	0.619 ± 0.027	0.577 ± 0.018	0.533 ± 0.024	0.51 ± 0.03	0.486 ± 0.03
10 µM, coculture fibroblast: HADF	0.8871 ± 0.0011	0.8366 ± 0.004	0.7906 ± 0.0029	0.746 ± 0.022	0.711 ± 0.027	0.663 ± 0.022	0.648 ± 0.02	0.636 ± 0.023	0.588 ± 0.029
10 µM, coculture fibroblast: HCFa	0.886 ± 0.024	0.829 ± 0.012	0.7853 ± 0.0067	0.751 ± 0.014	0.6921 ± 0.0053	0.6541 ± 0.00069	0.615 ± 0.033	0.586 ± 0.018	0.535 ± 0.0057
10 µM, coculture fibroblast: HCPF	0.8564 ± 0.0069	0.753 ± 0.03	0.687 ± 0.047	0.65 ± 0.064	0.586 ± 0.078	0.548 ± 0.089	0.514 ± 0.1	0.488 ± 0.12	0.469 ± 0.12
10 µM, coculture fibroblast: HHSteC	0.8905 ± 0.0081	0.8524 ± 0.0033	0.803 ± 0.015	0.768 ± 0.021	0.721 ± 0.018	0.696 ± 0.014	0.6486 ± 0.0058	0.635 ± 0.0071	0.5911 ± 0.0019
10 µM, coculture fibroblast: HMF	0.892 ± 0.022	0.8096 ± 0.0015	0.7456 ± 0.0047	0.701 ± 0.0091	0.6603 ± 0.005	0.6191 ± 0.0008	0.5886 ± 0.001	0.561 ± 0.0075	0.5443 ± 0.0049
10 µM, coculture fibroblast: HPFa	0.9249 ± 0.0011	0.895 ± 0.034	0.848 ± 0.034	0.797 ± 0.041	0.77 ± 0.049	0.739 ± 0.06	0.696 ± 0.065	0.67 ± 0.064	0.638 ± 0.07
10 µM, coculture fibroblast: HUF	0.818 ± 0.0086	0.717 ± 0.016	0.727 ± 0.015	0.6247 ± 0.004	0.567 ± 0.0067	0.5531 ± 0.0047	0.503 ± 0.0083	0.5049 ± 0.0049	0.5031 ± 0.0036
10 µM, coculture fibroblast: Hs5	0.859 ± 0.022	0.777 ± 0.01	0.7118 ± 0.0057	0.6587 ± 0.0011	0.6073 ± 0.0015	0.553 ± 0.0065	0.5218 ± 0.0023	0.509 ± 0.0098	0.505 ± 0.0076
10 µM, coculture fibroblast: Hs27A	0.897 ± 0.012	0.849 ± 0.022	0.813 ± 0.028	0.796 ± 0.028	0.762 ± 0.033	0.697 ± 0.039	0.712 ± 0.035	0.702 ± 0.038	0.661 ± 0.045
10 µM, coculture fibroblast: Hs343T	0.868 ± 0.012	0.783 ± 0.028	0.701 ± 0.045	0.657 ± 0.064	0.611 ± 0.065	0.553 ± 0.091	0.505 ± 0.11	0.485 ± 0.12	0.459 ± 0.13
10 µM, coculture fibroblast: WS1	0.741 ± 0.017	0.6677 ± 0.0039	0.644 ± 0.025	0.583 ± 0.013	0.532 ± 0.028	0.513 ± 0.025	0.475 ± 0.015	0.478 ± 0.017	0.465 ± 0.016
100 µM, coculture fibroblast: C12385	0.759 ± 0.011	0.70753 ± 0.00053	0.683 ± 0.0073	0.665 ± 0.0095	0.565 ± 0.079	0.501 ± 0.13	0.485 ± 0.13	0.5 ± 0.14	0.493 ± 0.15
100 µM, coculture fibroblast: H6013	0.902 ± 0.035	0.847 ± 0.023	0.8083 ± 0.0043	0.79328 ± 0.0003	0.7429 ± 0.0048	0.721 ± 0.04	0.676 ± 0.035	0.645 ± 0.038	0.594 ± 0.036
100 µM, coculture fibroblast: H6019	0.764 ± 0.0043	0.739 ± 0.0077	0.719 ± 0.045	0.672 ± 0.04	0.616 ± 0.039	0.59 ± 0.026	0.549 ± 0.029	0.537 ± 0.013	0.504 ± 0.02
100 µM, coculture fibroblast: H6076	0.8265 ± 0.0065	0.757 ± 0.0081	0.732 ± 0.017	0.695 ± 0.015	0.657 ± 0.021	0.606 ± 0.016	0.5819 ± 0.0035	0.5542 ± 0.0055	0.535 ± 0.026
100 µM, coculture fibroblast: H6231	0.905 ± 0.015	0.817 ± 0.03	0.763 ± 0.017	0.722 ± 0.012	0.678 ± 0.015	0.639 ± 0.01	0.5992 ± 0.0022	0.584 ± 0.0078	0.564 ± 0.0055
100 µM, coculture fibroblast: HADF	0.868 ± 0.011	0.84621 ± 0.00079	0.818 ± 0.011	0.7845 ± 0.00098	0.745 ± 0.018	0.695 ± 0.024	0.673 ± 0.033	0.647 ± 0.036	0.59 ± 0.036
100 µM, coculture fibroblast: HCFa	0.905 ± 0.025	0.848 ± 0.018	0.8018 ± 0.0012	0.76594 ± 0.0004	0.711 ± 0.025	0.655 ± 0.031	0.623 ± 0.043	0.577 ± 0.043	0.527 ± 0.042
100 µM, coculture fibroblast: HCPF	0.853 ± 0.056	0.767 ± 0.069	0.727 ± 0.047	0.724 ± 0.051	0.68 ± 0.051	0.651 ± 0.044	0.618 ± 0.041	0.59 ± 0.043	0.58 ± 0.057
100 µM, coculture fibroblast: HHSteC	0.90092 ± 0.00046	0.89 ± 0.003	0.8581 ± 0.0053	0.822 ± 0.012	0.795 ± 0.0086	0.773 ± 0.014	0.717 ± 0.011	0.702 ± 0.017	0.659 ± 0.022
100 µM, coculture fibroblast: HMF	0.8254 ± 0.0035	0.736 ± 0.0084	0.6991 ± 0.0014	0.6755 ± 0.0039	0.636 ± 0.018	0.603 ± 0.033	0.579 ± 0.036	0.57 ± 0.044	0.545 ± 0.052
100 µM, coculture fibroblast: HPFa	0.9093 ± 0.0062	0.872 ± 0.035	0.84 ± 0.042	0.797 ± 0.052	0.778 ± 0.053	0.756 ± 0.048	0.705 ± 0.044	0.676 ± 0.053	0.625 ± 0.062
100 µM, coculture fibroblast: HUF	0.841 ± 0.0073	0.768 ± 0.027	0.792 ± 0.028	0.708 ± 0.059	0.646 ± 0.067	0.629 ± 0.059	0.583 ± 0.053	0.584 ± 0.042	0.566 ± 0.039
100 µM, coculture fibroblast: Hs5	0.844 ± 0.027	0.788 ± 0.026	0.765 ± 0.023	0.724 ± 0.018	0.682 ± 0.012	0.6229 ± 0.006	0.595 ± 0.024	0.563 ± 0.04	0.543 ± 0.059
100 µM, coculture fibroblast: Hs27A	0.8835 ± 0.0059	0.853 ± 0.011	0.829 ± 0.021	0.806 ± 0.043	0.749 ± 0.044	0.681 ± 0.049	0.682 ± 0.055	0.658 ± 0.059	0.607 ± 0.068
100 µM, coculture fibroblast: Hs343T	0.857 ± 0.014	0.783 ± 0.014	0.772 ± 0.027	0.752 ± 0.042	0.702 ± 0.042	0.658 ± 0.043	0.625 ± 0.05	0.616 ± 0.052	0.591 ± 0.044
100 µM, coculture fibroblast: WS1	0.728 ± 0.03	0.691 ± 0.025	0.632 ± 0.03	0.627 ± 0.024	0.5892 ± 0.0056	0.541 ± 0.0081	0.49454 ± 0.00011	0.481 ± 0.0064	0.4564 ± 0.0027
